In this assay the target is LRP6.E1-E4 protein (Homo sapiens (Human)) (UniProt O75581). The assay can be described thus: biolayer interferometry, biotinylated LRP6 E1-E4 on streptavidin biosensors; Wnt3a at 200 nM; association then dissociation phase. (In general: BLI is a label-free optical method that tracks binding on a fibre tip over time.)

Sequences of proteins named here, by UniProt entry; tags and fusion partners are left off. A change or cut given only in a name is not applied to a line headed by its entry. Residues count along the entry.
UniProt O75581: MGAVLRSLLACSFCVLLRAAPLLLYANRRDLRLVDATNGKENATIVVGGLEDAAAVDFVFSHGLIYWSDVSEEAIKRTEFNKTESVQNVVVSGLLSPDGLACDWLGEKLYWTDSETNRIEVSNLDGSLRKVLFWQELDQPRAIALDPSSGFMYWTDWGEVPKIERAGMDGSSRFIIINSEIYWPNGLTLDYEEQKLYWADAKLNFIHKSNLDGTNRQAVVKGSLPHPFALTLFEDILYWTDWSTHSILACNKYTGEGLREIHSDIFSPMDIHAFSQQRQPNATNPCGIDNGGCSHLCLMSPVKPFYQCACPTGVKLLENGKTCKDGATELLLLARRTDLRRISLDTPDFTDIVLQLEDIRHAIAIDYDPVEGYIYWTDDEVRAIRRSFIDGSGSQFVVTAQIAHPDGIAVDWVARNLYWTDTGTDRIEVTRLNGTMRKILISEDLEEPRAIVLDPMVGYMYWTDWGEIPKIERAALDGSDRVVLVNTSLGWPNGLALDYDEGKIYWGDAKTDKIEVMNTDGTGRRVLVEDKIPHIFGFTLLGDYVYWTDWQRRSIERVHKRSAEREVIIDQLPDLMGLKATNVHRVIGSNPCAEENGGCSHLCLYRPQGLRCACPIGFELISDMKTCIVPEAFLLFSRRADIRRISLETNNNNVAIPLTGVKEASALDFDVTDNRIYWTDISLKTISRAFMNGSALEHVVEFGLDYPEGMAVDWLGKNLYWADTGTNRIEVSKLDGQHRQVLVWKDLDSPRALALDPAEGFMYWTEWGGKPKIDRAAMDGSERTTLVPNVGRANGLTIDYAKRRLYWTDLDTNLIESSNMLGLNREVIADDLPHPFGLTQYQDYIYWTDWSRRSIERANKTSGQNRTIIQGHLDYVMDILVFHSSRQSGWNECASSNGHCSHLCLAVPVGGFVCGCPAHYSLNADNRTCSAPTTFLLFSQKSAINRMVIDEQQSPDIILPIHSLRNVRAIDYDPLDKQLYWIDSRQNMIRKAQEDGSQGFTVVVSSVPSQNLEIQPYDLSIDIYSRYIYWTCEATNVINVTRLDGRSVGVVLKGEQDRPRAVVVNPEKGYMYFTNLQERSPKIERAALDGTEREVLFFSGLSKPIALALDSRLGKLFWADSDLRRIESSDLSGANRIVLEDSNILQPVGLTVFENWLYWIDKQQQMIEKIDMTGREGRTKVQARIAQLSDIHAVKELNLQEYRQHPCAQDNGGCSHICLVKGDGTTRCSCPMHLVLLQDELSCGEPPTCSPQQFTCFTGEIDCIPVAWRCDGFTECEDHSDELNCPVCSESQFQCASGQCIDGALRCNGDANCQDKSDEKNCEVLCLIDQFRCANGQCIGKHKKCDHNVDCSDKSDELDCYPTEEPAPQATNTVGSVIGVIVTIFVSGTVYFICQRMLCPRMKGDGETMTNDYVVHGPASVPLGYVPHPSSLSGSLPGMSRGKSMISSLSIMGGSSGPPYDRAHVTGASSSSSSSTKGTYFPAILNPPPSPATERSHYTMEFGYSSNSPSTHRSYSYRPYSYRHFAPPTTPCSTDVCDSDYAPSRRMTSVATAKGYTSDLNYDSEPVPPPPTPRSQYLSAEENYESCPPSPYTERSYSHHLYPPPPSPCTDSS
UniProt P56704, residues 19-352: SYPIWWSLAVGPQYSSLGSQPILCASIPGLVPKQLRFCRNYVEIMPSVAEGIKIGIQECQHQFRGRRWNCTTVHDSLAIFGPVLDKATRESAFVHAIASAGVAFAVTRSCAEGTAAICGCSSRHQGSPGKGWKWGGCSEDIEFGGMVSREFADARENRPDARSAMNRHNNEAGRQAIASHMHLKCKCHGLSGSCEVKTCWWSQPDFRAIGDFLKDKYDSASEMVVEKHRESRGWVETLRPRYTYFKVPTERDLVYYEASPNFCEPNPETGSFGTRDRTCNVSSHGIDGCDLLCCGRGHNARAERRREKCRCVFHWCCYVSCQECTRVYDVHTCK

Results are given in words; binding and its absence hold for the method and conditions named. Some binding calls cover weakened binding; strength is not graded here.

As for “Wnt3a (from UniProt P56704 19-352) (ligand)”, the binding entry is reported as “binds”.

Source of the values: patent publication US20110256127A1.
